Measured values: paper PMC7785291
Where two headings read alike, the source gives them in different places. Results are given in words; binding and its absence hold for the method and conditions named. Binding seen in cells or lysates may run through a third protein. Here binding means that the protein was enriched with, or labelled near, the bait; the list need not be complete. For some of these results: Sequences can lack the tags named with a protein.

Amino acid sequences for entries named in this document (tags omitted). A change or cut given only in a name is not applied to a line headed by its entry.
UniProt Q6GPB9: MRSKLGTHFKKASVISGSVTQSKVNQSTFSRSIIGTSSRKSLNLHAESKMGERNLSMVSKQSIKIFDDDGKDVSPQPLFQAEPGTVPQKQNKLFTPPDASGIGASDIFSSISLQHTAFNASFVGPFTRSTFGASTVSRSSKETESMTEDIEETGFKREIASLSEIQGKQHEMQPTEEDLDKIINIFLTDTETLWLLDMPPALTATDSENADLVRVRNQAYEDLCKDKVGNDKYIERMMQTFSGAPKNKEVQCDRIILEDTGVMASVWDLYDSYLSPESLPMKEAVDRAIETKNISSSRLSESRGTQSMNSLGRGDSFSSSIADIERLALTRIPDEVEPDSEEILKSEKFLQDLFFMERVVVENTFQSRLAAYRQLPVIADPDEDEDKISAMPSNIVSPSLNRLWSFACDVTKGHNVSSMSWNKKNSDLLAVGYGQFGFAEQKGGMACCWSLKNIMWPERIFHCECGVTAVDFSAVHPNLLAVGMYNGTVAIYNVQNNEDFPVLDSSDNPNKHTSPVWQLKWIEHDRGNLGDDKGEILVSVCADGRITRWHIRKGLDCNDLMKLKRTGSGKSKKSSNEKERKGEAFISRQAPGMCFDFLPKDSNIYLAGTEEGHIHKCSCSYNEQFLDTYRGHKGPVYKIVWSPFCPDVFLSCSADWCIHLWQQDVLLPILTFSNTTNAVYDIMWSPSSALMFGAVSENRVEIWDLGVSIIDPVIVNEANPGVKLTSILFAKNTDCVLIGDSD
UniProt Q9DE27: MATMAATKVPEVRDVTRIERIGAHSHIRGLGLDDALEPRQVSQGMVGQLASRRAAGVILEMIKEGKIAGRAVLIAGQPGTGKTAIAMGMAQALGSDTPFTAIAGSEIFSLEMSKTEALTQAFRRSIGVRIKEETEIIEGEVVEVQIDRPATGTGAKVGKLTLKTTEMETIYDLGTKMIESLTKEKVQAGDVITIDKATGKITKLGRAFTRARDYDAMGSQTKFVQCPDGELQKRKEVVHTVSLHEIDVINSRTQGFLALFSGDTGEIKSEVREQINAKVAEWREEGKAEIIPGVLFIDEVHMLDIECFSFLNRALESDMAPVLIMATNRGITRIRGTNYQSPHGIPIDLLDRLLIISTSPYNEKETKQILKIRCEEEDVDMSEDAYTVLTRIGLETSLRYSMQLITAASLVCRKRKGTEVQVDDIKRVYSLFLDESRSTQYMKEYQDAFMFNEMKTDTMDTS
UniProt A0A1L8HX76: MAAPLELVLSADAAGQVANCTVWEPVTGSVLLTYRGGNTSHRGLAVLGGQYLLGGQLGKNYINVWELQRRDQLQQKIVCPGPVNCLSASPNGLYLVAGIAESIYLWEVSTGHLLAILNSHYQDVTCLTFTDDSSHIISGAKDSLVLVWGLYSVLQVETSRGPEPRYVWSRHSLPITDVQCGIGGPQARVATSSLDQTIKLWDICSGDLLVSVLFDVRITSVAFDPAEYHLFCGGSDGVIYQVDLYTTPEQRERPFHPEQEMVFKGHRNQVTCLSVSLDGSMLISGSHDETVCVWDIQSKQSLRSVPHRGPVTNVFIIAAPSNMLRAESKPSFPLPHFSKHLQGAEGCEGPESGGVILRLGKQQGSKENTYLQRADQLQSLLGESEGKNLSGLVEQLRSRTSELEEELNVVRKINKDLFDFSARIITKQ
UniProt Q9DE26: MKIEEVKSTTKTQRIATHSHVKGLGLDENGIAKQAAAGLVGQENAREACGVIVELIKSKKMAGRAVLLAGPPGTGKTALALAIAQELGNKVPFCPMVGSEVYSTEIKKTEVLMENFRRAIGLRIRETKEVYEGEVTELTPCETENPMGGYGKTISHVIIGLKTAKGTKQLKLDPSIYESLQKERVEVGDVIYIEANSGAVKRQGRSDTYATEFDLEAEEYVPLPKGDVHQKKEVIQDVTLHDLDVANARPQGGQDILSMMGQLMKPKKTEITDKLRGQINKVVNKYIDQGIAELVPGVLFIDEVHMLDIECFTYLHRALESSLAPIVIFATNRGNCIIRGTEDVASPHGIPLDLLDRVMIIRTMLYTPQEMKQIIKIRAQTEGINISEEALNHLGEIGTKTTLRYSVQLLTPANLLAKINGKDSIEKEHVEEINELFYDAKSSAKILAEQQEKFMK
UniProt A0A1L8EYB2: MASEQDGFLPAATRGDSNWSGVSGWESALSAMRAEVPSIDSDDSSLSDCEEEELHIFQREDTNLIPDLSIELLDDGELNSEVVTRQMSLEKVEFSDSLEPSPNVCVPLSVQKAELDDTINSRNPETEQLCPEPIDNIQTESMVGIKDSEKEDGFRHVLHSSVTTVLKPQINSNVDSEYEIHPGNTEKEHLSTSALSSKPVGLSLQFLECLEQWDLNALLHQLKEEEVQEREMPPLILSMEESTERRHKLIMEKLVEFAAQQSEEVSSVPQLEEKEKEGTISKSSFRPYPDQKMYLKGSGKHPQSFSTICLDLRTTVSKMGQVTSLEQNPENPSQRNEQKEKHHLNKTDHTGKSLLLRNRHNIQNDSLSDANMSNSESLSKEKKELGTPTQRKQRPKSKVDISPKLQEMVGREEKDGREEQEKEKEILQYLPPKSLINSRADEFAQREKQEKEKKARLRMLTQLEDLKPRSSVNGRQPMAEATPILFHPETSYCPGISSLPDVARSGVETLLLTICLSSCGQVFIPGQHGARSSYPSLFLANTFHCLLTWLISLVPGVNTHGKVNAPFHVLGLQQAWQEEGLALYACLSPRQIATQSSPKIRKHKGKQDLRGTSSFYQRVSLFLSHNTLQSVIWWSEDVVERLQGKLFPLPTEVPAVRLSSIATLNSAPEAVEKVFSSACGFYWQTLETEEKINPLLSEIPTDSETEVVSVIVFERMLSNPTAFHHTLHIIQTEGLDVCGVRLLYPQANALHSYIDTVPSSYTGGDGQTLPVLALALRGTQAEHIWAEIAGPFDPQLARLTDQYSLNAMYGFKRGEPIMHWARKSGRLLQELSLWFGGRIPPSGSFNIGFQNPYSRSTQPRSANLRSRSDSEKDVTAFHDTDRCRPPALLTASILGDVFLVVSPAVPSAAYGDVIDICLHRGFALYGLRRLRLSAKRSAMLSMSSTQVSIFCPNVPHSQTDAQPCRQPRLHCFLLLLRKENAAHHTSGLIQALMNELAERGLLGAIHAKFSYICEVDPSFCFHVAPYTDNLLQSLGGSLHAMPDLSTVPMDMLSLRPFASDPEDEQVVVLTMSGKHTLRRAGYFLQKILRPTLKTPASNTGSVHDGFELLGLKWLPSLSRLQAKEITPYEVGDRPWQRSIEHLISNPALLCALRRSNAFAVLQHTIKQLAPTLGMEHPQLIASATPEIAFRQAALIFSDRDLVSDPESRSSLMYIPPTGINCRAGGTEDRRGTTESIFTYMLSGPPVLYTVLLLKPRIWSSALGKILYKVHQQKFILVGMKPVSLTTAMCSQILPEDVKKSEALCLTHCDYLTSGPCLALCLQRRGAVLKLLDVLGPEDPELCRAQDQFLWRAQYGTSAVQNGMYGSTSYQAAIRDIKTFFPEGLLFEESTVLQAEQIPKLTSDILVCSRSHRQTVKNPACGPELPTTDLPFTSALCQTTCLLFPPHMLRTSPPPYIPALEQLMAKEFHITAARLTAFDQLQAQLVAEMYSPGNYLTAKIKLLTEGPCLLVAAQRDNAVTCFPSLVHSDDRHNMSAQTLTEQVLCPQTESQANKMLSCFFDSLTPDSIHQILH

T1: GFP-Dnai2 (Xenopus) (UniProt Q4QR00)
T1 sequence: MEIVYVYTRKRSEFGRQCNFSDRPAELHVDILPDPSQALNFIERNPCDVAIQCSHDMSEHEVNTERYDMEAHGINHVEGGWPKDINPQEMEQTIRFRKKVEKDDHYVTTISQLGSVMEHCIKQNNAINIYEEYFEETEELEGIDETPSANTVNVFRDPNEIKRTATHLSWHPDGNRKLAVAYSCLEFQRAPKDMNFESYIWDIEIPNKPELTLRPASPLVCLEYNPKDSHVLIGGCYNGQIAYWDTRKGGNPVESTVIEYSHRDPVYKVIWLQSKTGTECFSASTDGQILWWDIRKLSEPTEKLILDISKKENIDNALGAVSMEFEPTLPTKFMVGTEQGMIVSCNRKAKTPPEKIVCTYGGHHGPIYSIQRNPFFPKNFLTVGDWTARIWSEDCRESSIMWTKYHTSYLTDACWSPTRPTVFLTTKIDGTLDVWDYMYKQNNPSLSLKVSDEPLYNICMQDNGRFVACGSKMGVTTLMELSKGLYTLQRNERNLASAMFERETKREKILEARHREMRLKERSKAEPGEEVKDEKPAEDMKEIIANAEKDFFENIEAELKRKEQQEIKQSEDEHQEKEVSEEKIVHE

B1: Nme9 (protein, UniProt Q6IRC5 1-625)
chain: MAGKKRESSLQIALSNQEQWEEALSTKGLQVVDVYQAWCGPCKPTVSLFRKIKNELGDDLLHFAVAESDTIDSLVKYRGKCEPTFLFLAGGELVAVVRGANGPLLQKTIIEQLAAEKKVLNQGSERHVIKDEVLLEEEDEIAPVQAQTEDEELVPSGKSYTVAIIKPDAVAHGKTDEIIMKIQESGFEILANEERTMTESEAREFYQHRAGEEKFQELIQFMSSGPCHILIISKSEEDEDVIPAWREFIGPTDVEIAKKEKPESLRAQYGTEVLYNAVHGSNDREQASRELAFFFPNFKISNESLKELTSVKPERTLALIRPEILKERKDEILQSIKDAGFSIAMQKEVMLTEHQVQEFYKEHINEDYYPALLKQMTSGPVLALALVKDNAVGHWRNMLGPASLSQALSEAPDSLRAQFAPSDSETNQLHGSSTTEEAKKEINFFFPVEHTLATIKPDALEEHRDEILEQIQGAGFTISQIKEANLNREMAEEFYKEHKGKPFFEQLVNYMCRGPCLMMILSKENAVHEWRSLMGPTDPAEAQKVLPDSLRGKFAKSILQNAVHGSSNSDHAMEKIKFIFGDIDLDRIVHESFGETPETSASDISRNAAAQGDDPEQDESKEMEE

Columns and labels:
Experiment in all cases: affinity purification with mass spectrometry; GFP-tagged bait expressed in multiciliated cells of ~500-550 Xenopus animal cap explants cultured to stage 23; immunoprecipitation with GFP-Trap Agarose; parallel un-fused GFP control used to subtract background; enrichment by Z-test, fold-change and …
GFP-Dnai2 (Xenopus) [1] = molecular target: T1, GFP-Dnai2 (Xenopus)
GFP-Wdr78 (Xenopus) = GFP-Wdr78 (Xenopus) (UniProt Q6GPB9)
GFP-Dnai2 (Xenopus) [2] = molecular target: T1, GFP-Dnai2 (Xenopus); remark: listed apart in the source

Molecule | binding (GFP-Dnai2 (Xenopus) [1]) | binding (GFP-Wdr78 (Xenopus)) | binding (GFP-Dnai2 (Xenopus) [2])
Dnaaf1 | binds weakly | – | –
Dnai1 | binds | – | –
Spag1 | binds weakly | – | –
Ruvbl2 (from UniProt Q9DE27 1-462) | binds weakly | binds weakly | –
Tctex1d1 | binds | – | –
Wdr18 (from UniProt A0A1L8HX76 1-428) | – | binds | –
Ruvbl1 (from UniProt Q9DE26 1-456) | binds weakly | binds weakly | –
Dnah11 | binds | – | –
Dnah9 | binds | – | –
C16orf71/Daap1 (from UniProt A0A1L8EYB2) | binds | – | –
B1 | – | – | binds
